PubChem BioAssay AID602196 | INSERM – 2012
Shown is a random part of about 23,000 deposited reagents. 455 of them (2%) were called active. 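Active includes both protection and sensitisation; some change values fall well beyond the stated -50 to +50 range.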 Further read-outs or replicates are left out here. The record does not give: the amount of reagent.

Aim: 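Genes whose knock-down alters cisplatin killing of lung cancer cells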
System: human A549 lung cancer cells
Knock-down reagent: siRNA pair against human genes
Time to read-out: 48 h transfection before cisplatin; time from cisplatin to read-out not stated
Treatment: cisplatin at a dose killing half of control-siRNA cells; exact dose and duration not given
Read-out: 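Cisplatin cell death as a shift from the 50% death seen with control siRNA; siRNAs toxic or growth-blocking alone scored 0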
Reading the numbers: two-siRNA summed score (-2 to +2): higher = both siRNAs protect from cisplatin killing; -2 means both sensitise; mean protection from cisplatin (shift in death): higher = protection from cisplatin killing
Rule for the call: 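Each siRNA scores 0 if harmful alone by LDH or WST-1, otherwise +1 if it reduces and -1 if it increases cisplatin killing; a gene is active when both siRNAs agree (sum +2 or -2)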
Meaning of the calls: active = both siRNAs shift cisplatin killing the same way; inactive = no consistent shift, or siRNA harmful alone

no.	Gene	PubChem SID	two-siRNA summed score (-2 to +2)	mean protection from cisplatin (shift in death) (%)	Call
1	NLRC4	SID131512006	0	5	inactive
2	LRP5L	SID131512114	0	5.1	inactive
3	LOC441837	SID131513091	0	6.2	inactive
4	ATF2	SID131506830	0	-0.9	inactive
5	TEAD4	SID131512935	0	6	inactive
6	RGMA	SID131504786	0	-4.5	inactive
7	CDHR1	SID131521728	1	14.6	inactive
8	NEBL	SID131517635	0	14.1	inactive
9	NEBL	SID131519891	1	7.9	inactive
10	RETREG1	SID131515826	0	9.7	inactive
11	CPNE6	SID131502068	-1	-5.5	inactive
12	LOC286129	SID131517754	0	14.6	inactive
13	NR1I2	SID131515013	0	8.6	inactive
14	HAVCR1	SID131503464	0	-9.9	inactive
15	CENPO	SID131513595	0	6.8	inactive
16	TNNI3K	SID131506377	0	-1.6	inactive
17	ADIG	SID131513680	0	6.9	inactive
18	TRIAP1	SID131505701	0	-2.7	inactive
19	DYNC1LI2	SID131518947	1	-2.1	inactive
20	TCTN2	SID131517983	0	15.8	inactive
21	VPS41	SID131515953	0	10	inactive
22	TMPRSS13	SID131510241	0	3	inactive
23	EFR3A	SID131510269	0	3.1	inactive

Copied from the list:
Result for CPNE6 [SID131502068] in “two-siRNA summed score (-2 to +2)”: -1
For “mean protection from cisplatin (shift in death) (%)”, ADIG [SID131513680] shows 6.9
NEBL [SID131517635], two-siRNA summed score (-2 to +2) → 0
